Experimental data reported in the supplement of paper PMC12823440, “Inhibitors supercharge kinase turnover through native proteolytic circuits” (Nature, 2025).
The list shows a part of the results. Hit calls seldom repeat between salt and free forms of one compound.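 Kinases were expressed as nanoluciferase fusions in K562 cells and luminescence was read every 4 h between 2 and 18 h as percent of control, DMSO set to 100% and a positive control to 0%. A time point counts as decreased when the signal drops significantly (2 sigma). The hit call is the authors' own, does not follow from the count of time points alone, and its rule is not shown.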

The chains behind the UniProt entries cited, without tags or fusion partners. Where a name states a change or a piece, a line headed by the entry shows the natural chain unless it says otherwise.
UniProt Q9Y616: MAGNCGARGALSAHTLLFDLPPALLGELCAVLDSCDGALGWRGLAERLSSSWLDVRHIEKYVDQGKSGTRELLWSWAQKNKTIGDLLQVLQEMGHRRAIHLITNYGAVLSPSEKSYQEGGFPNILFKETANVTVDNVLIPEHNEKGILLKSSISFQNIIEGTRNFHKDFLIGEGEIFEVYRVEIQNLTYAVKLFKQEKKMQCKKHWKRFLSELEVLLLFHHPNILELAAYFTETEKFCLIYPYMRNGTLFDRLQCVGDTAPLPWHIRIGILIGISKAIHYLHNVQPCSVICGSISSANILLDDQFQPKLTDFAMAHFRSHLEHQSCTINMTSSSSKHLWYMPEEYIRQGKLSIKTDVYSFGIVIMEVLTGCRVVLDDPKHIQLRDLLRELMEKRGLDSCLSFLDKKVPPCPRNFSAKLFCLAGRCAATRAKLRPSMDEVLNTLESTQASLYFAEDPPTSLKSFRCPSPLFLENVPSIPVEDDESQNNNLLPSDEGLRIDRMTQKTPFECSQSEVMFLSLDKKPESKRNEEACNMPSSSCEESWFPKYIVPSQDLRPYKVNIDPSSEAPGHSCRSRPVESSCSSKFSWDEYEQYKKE
UniProt P23458: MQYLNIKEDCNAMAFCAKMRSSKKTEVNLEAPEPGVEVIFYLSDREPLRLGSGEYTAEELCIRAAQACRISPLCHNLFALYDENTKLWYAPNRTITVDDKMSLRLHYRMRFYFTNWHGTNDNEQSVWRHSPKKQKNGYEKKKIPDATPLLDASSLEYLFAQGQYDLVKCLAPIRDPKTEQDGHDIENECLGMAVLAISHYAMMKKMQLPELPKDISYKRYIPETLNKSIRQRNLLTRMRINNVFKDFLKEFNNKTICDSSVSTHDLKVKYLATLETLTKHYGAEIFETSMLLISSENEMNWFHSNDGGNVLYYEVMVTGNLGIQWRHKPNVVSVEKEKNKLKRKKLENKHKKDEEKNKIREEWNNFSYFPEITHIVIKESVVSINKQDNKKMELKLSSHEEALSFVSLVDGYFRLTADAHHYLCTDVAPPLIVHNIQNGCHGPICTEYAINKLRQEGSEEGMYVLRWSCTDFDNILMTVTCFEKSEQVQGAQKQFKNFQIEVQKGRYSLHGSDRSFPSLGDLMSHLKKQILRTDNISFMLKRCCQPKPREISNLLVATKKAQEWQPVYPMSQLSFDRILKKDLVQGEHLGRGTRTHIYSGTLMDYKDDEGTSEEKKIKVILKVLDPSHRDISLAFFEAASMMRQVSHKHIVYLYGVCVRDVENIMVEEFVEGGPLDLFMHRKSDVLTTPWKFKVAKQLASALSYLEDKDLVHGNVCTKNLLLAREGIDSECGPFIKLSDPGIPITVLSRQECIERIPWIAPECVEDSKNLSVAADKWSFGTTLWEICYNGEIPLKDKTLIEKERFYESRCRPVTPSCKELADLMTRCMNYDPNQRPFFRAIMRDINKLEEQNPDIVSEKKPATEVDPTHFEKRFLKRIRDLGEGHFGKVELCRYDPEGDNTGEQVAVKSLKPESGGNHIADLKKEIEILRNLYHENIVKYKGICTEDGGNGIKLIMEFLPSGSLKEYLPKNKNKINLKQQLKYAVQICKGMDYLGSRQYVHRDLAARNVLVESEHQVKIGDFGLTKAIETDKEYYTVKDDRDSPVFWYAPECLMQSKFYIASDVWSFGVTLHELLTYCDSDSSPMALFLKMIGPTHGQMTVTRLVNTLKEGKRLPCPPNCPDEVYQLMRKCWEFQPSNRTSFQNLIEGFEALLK
UniProt P06239: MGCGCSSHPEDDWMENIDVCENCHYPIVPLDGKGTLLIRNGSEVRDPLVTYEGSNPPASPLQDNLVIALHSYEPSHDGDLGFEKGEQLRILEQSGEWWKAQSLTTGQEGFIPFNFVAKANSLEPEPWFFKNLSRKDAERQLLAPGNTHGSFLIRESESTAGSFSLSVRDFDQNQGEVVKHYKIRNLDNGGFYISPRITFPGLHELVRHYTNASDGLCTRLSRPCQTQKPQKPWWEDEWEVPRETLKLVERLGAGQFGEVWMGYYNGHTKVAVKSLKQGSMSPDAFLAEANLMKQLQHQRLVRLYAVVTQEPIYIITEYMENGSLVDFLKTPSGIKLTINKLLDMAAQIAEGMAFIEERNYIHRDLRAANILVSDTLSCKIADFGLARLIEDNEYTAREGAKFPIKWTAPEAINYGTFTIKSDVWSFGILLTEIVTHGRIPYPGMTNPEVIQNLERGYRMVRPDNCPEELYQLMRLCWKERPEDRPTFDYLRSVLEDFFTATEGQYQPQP
UniProt P53667: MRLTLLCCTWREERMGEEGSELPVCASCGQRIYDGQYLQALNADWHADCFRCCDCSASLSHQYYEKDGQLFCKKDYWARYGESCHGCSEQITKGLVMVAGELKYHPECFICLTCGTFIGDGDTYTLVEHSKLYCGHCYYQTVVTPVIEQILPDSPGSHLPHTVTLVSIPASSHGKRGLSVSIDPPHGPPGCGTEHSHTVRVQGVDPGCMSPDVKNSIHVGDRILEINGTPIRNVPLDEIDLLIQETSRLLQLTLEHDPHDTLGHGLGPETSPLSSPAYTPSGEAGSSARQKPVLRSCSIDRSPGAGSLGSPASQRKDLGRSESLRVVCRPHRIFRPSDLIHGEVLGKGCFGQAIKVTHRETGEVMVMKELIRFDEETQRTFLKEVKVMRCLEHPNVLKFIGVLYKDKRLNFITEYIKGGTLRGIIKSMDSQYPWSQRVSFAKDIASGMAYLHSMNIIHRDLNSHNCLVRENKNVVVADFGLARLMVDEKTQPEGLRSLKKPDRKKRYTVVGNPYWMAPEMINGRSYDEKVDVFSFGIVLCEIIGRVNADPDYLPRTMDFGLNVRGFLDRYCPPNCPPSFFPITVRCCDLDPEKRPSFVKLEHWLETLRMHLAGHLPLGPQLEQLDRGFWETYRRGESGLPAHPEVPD
UniProt P53671: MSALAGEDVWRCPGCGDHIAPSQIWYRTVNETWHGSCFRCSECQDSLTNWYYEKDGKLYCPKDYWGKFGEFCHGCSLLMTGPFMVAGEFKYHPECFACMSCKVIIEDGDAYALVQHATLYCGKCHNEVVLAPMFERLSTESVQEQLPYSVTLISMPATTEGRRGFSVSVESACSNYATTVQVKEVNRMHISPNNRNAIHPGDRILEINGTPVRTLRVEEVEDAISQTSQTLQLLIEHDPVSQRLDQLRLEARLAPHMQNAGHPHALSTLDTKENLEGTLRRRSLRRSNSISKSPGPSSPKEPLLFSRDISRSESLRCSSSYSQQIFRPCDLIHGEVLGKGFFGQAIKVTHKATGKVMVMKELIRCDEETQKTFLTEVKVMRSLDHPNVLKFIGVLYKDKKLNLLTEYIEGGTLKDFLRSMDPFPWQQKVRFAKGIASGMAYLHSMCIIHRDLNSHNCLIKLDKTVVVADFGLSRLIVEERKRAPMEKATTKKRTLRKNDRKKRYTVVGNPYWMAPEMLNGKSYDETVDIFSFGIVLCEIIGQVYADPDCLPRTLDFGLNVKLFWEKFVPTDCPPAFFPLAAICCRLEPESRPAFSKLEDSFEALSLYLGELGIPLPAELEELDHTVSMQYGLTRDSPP
UniProt Q8IWU2: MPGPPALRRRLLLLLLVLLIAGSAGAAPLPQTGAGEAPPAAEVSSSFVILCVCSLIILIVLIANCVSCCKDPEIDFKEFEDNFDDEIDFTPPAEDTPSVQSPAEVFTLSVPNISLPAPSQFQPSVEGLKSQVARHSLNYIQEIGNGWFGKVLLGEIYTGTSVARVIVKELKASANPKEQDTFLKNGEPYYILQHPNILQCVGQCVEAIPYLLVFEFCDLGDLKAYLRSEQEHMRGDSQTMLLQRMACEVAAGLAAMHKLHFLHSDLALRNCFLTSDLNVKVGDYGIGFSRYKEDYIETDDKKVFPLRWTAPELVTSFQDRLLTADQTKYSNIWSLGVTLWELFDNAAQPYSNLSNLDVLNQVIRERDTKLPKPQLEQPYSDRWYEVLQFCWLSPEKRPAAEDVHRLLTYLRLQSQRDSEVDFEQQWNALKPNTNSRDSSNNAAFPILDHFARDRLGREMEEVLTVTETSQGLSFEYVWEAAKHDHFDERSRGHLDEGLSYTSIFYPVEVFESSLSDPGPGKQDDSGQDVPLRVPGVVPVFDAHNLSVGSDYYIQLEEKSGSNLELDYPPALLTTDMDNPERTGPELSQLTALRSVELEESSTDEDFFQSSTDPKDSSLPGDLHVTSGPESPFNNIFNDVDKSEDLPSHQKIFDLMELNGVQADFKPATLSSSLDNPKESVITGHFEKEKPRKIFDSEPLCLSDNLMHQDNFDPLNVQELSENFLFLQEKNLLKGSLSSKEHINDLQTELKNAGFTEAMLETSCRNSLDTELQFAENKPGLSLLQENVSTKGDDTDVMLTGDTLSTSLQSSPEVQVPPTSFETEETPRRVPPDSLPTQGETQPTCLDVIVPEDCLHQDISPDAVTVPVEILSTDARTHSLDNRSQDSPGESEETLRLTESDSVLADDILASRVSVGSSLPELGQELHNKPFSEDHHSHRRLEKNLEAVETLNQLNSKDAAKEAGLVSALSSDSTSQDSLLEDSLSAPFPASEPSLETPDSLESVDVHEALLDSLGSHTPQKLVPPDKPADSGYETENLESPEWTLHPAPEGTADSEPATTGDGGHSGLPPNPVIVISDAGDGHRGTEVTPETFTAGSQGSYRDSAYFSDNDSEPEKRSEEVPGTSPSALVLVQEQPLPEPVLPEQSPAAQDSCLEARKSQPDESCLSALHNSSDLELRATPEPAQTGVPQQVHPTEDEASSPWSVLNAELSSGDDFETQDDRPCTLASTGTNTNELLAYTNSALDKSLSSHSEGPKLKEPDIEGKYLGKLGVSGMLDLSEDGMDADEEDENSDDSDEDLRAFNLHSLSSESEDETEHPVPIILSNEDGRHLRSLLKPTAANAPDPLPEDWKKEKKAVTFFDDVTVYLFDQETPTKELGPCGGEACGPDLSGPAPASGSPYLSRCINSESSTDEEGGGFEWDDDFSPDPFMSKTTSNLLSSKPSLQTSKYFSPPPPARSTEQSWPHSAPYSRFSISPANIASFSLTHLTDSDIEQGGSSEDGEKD
UniProt P07948: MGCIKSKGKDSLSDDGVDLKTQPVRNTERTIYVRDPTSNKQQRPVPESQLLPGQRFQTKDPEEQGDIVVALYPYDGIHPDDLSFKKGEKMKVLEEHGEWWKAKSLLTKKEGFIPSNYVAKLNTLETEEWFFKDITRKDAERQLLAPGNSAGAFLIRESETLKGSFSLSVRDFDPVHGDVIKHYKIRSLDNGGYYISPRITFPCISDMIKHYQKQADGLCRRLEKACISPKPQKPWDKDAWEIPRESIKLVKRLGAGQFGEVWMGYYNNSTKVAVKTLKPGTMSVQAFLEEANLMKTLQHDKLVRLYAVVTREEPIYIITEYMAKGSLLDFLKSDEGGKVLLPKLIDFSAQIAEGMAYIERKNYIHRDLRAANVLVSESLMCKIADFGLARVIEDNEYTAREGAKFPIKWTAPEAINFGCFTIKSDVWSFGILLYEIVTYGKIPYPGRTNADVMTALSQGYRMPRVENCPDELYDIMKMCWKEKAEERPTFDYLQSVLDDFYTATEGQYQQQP
UniProt Q12851: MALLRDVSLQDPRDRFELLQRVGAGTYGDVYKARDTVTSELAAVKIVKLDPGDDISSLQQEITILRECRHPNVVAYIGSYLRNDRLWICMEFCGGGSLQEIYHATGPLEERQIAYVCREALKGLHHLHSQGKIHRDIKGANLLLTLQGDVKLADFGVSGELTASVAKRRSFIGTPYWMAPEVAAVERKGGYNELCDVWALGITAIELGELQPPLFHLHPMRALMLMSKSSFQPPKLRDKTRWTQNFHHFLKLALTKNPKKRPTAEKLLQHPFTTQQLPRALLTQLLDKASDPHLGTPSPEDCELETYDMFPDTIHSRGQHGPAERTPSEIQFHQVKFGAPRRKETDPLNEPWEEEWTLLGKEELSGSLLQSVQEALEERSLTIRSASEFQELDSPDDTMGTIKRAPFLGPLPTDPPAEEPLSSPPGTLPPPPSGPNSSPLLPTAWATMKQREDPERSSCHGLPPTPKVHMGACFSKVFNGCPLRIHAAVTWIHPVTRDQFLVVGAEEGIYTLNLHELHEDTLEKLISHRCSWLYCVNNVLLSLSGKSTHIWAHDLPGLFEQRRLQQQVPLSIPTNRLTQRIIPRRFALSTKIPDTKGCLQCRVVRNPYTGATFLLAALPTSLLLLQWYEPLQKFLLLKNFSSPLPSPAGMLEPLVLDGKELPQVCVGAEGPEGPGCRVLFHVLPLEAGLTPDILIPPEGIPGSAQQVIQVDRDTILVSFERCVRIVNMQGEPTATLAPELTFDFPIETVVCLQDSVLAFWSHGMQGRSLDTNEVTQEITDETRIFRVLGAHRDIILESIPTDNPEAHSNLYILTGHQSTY

Legend:
Experiment in all cases: kinase-Nluc reporter destabilization hit call (1 = scored as downregulated) (binary); higher = compound decreases kinase abundance
Details in all cases: K562; 2-18 h
IRAK3 = IRAK3 (UniProt Q9Y616)
JAK1 = JAK1 (UniProt P23458)
LCK = LCK (UniProt P06239)
LIMK1 = LIMK1 (UniProt P53667)
LIMK2 = LIMK2 (UniProt P53671)
LMTK2 = LMTK2 (UniProt Q8IWU2)
LYN = LYN (UniProt P07948)
MAP2K1 = MAP2K1 (UniProt Q02750)
MAP2K2 = MAP2K2 (UniProt P36507)
MAP4K2 = MAP4K2 (UniProt Q12851)

Measured: kinase-Nluc reporter destabilization hit call

COc1ccc(C(=C2C(=O)Nc3ccccc32)c2ccc(OC)cc2)cc1 (10 µM)
inactive: IRAK3 = 0 | JAK1 = 0 | LCK 0 | LIMK1 = 0 | LIMK2 = 0 | LMTK2 = 0 | LYN 0 | MAP2K1 = 0 | MAP2K2 = 0 | MAP4K2 = 0

COc1ccc(C2CC(c3ccccc3)=NN2c2ccc(S(N)(=O)=O)cc2)cc1 (stereo not given) (10 µM)
inactive: IRAK3 = 0 | JAK1 = 0 | LCK 0 | LIMK1 = 0 | LIMK2 = 0 | LMTK2 = 0 | LYN 0 | MAP2K1 = 0 | MAP2K2 = 0 | MAP4K2 = 0

Cc1c(NC(=O)OC[C@@H]2COCCN2)cn2ncnc(Nc3ccc4c(cnn4Cc4cccc(F)c4)c3)c12 (10 µM)
inactive: IRAK3 = 0 | JAK1 = 0 | LCK 0 | LIMK1 = 0 | LIMK2 = 0 | LMTK2 = 0 | LYN 0 | MAP2K1 = 0 | MAP2K2 = 0 | MAP4K2 = 0

Cc1noc(C)c1-c1ccc(-c2cc(C(N)=O)c(NC(N)=O)s2)c(O[C@H]2CCNC2)c1 (10 µM)
inactive: IRAK3 = 0 | JAK1 = 0 | LCK 0 | LIMK1 = 0 | LIMK2 = 0 | LMTK2 = 0 | LYN 0 | MAP2K1 = 0 | MAP2K2 = 0 | MAP4K2 = 0

CC(C)=CC(=O)CCC(=O)N1CCN(Cc2cc3nc(-c4cccc5[nH]ncc45)nc(N4CCOCC4)c3s2)CC1 (10 µM)
inactive: IRAK3 = 0 | JAK1 = 0 | LCK 0 | LIMK1 = 0 | LIMK2 = 0 | LMTK2 = 0 | LYN 0 | MAP2K1 = 0 | MAP2K2 = 0 | MAP4K2 = 0

CNCc1ccccc1-c1csc([C@@H](C)Nc2nc(C)nc3cc(OC)c(OC)cc23)c1 (2.5 µM)
inactive: IRAK3 = 0 | JAK1 = 0 | LCK 0 | LIMK1 = 0 | LIMK2 = 0 | LMTK2 = 0 | LYN 0 | MAP2K1 = 0 | MAP2K2 = 0 | MAP4K2 = 0

O=C(/C=C/c1ccc(O[C@@H]2O[C@H](CO)[C@@H](O)[C@H](O)[C@H]2O[C@@H]2OC[C@](O)(CO)[C@H]2O)cc1)c1ccc(O)cc1O [Isoliquiritin apioside] (10 µM)
inactive: IRAK3 = 0 | JAK1 = 0 | LCK 0 | LIMK1 = 0 | LIMK2 = 0 | LMTK2 = 0 | LYN 0 | MAP2K1 = 0 | MAP2K2 = 0 | MAP4K2 = 0

Quoted at random: two compounds from above, in no set order.
CNCc1ccccc1-c1csc([C@@H](C)Nc2nc(C)nc3cc(OC)c(OC)cc23)c1 (2.5 µM)
inactive: IRAK3 = 0 | JAK1 = 0 | LCK 0 | LIMK1 = 0 | LIMK2 = 0 | LMTK2 = 0 | LYN 0 | MAP2K1 = 0 | MAP2K2 = 0 | MAP4K2 = 0

Cc1c(NC(=O)OC[C@@H]2COCCN2)cn2ncnc(Nc3ccc4c(cnn4Cc4cccc(F)c4)c3)c12 (10 µM)
inactive: IRAK3 = 0 | JAK1 = 0 | LCK 0 | LIMK1 = 0 | LIMK2 = 0 | LMTK2 = 0 | LYN 0 | MAP2K1 = 0 | MAP2K2 = 0 | MAP4K2 = 0

(listing goes on)

O=C(/C=C/c1ccc(O)c(O)c1)c1ccc(O[C@@H]2O[C@H](CO)[C@@H](O)[C@H](O)[C@H]2O)c(O)c1O [Marein] (10 µM)
inactive: IRAK3 = 0 | JAK1 = 0 | LCK 0 | LIMK1 = 0 | LIMK2 = 0 | LMTK2 = 0 | LYN 0 | MAP2K1 = 0 | MAP2K2 = 0 | MAP4K2 = 0

COc1ccc(-c2ccc3c(N4CCOC[C@@H]4C)nc(N4CCOC[C@@H]4C)nc3n2)cc1CO (2.5 µM)
inactive: IRAK3 = 0 | JAK1 = 0 | LCK 0 | LIMK1 = 0 | LIMK2 = 0 | LMTK2 = 0 | LYN 0 | MAP2K1 = 0 | MAP2K2 = 0 | MAP4K2 = 0

COc1ccc2[nH]cc(/C=C3\C(=O)Nc4ccc(NC(=O)CCN5CCCCC5)cc43)c2c1 (2.5 µM)
inactive: IRAK3 = 0 | JAK1 = 0 | LCK 0 | LIMK1 = 0 | LIMK2 = 0 | LMTK2 = 0 | LYN 0 | MAP2K1 = 0 | MAP2K2 = 0 | MAP4K2 = 0

COc1ccc(CC(=O)Nc2nc3c(s2)CCc2ccccc2-3)cc1OC (10 µM)
inactive: IRAK3 = 0 | JAK1 = 0 | LCK 0 | LIMK1 = 0 | LIMK2 = 0 | LMTK2 = 0 | LYN 0 | MAP2K1 = 0 | MAP2K2 = 0 | MAP4K2 = 0

NCCN1CCN(C/C=C/C(=O)N2CCC[C@@H](n3nc(-c4ccc(Oc5ccccc5)cc4)c4c(N)ncnc43)C2)CC1 [Ibrutinib-MPEA] (10 µM)
inactive: IRAK3 = 0 | JAK1 = 0 | LCK 0 | LIMK1 = 0 | LIMK2 = 0 | LMTK2 = 0 | LYN 0 | MAP2K1 = 0 | MAP2K2 = 0 | MAP4K2 = 0

CS(=O)(=O)c1ccc(-c2noc(C(F)(F)F)c2-c2ccccc2)cc1 (10 µM)
inactive: IRAK3 = 0 | JAK1 = 0 | LCK 0 | LIMK1 = 0 | LIMK2 = 0 | LMTK2 = 0 | LYN 0 | MAP2K1 = 0 | MAP2K2 = 0 | MAP4K2 = 0

C[C@@]1(O)CCC[C@H]1n1c(=O)c(C(F)F)cc2cnc(NC3CCN(S(C)(=O)=O)CC3)nc21 (2.5 µM)
inactive: IRAK3 = 0 | JAK1 = 0 | LCK 0 | LIMK1 = 0 | LIMK2 = 0 | LMTK2 = 0 | LYN 0 | MAP2K1 = 0 | MAP2K2 = 0 | MAP4K2 = 0

CC(C)c1cnc(-c2cc(Cl)ccc2F)cc1Nc1ccncc1C(=O)NC(CO)CO (2.5 µM)
inactive: IRAK3 = 0 | JAK1 = 0 | LCK 0 | LIMK1 = 0 | LIMK2 = 0 | LMTK2 = 0 | LYN 0 | MAP2K1 = 0 | MAP2K2 = 0 | MAP4K2 = 0

NCc1ccc(Nc2ncc(F)c(Nc3ccccc3)n2)cc1 (10 µM)
inactive: IRAK3 = 0 | JAK1 = 0 | LCK 0 | LIMK1 = 0 | LIMK2 = 0 | LMTK2 = 0 | LYN 0 | MAP2K1 = 0 | MAP2K2 = 0 | MAP4K2 = 0

COc1cccc(-n2c(=O)[nH]c3cc(Cl)n(-c4ccc(-c5cccc(OC)c5O)cc4)c3c2=O)c1 (2.5 µM)
inactive: IRAK3 = 0 | JAK1 = 0 | LCK 0 | LIMK1 = 0 | LIMK2 = 0 | LMTK2 = 0 | LYN 0 | MAP2K1 = 0 | MAP2K2 = 0 | MAP4K2 = 0

C/C(=C1/C(=O)Nc2ccc(NC(N)=O)cc21)c1ccc[nH]1 (10 µM)
inactive: IRAK3 = 0 | JAK1 = 0 | LCK 0 | LIMK1 = 0 | LIMK2 = 0 | LMTK2 = 0 | LYN 0 | MAP2K1 = 0 | MAP2K2 = 0 | MAP4K2 = 0
